Here are results for 27 targets from the supplement of paper PMC10849652.

The chains behind the UniProt entries cited, without tags or fusion partners. Where a name states a change or a piece, a line headed by the entry shows the natural chain unless it says otherwise.
UniProt P57737: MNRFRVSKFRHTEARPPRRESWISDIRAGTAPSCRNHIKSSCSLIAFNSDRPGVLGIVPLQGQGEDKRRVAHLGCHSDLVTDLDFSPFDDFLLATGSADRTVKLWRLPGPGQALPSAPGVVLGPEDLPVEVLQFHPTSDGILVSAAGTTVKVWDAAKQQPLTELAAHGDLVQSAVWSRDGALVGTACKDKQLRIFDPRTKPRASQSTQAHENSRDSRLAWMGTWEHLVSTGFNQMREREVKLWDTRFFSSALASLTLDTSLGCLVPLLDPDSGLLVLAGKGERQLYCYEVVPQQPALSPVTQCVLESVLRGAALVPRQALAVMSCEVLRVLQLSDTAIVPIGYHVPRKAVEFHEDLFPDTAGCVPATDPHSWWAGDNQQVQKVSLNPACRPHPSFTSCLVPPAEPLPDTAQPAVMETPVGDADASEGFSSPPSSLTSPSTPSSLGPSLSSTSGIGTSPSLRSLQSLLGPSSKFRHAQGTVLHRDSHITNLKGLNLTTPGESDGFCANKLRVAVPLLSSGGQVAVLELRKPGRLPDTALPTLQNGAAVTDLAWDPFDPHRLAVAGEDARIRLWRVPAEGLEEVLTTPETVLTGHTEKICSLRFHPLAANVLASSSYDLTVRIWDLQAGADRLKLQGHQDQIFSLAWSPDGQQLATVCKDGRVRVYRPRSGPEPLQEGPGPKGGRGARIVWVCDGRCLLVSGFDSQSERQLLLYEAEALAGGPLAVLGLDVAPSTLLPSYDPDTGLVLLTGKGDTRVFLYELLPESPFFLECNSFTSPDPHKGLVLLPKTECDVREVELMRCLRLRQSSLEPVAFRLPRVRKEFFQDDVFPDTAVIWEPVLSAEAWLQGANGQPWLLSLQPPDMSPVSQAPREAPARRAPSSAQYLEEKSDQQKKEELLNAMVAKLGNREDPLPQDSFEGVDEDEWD
UniProt Q9UBL6: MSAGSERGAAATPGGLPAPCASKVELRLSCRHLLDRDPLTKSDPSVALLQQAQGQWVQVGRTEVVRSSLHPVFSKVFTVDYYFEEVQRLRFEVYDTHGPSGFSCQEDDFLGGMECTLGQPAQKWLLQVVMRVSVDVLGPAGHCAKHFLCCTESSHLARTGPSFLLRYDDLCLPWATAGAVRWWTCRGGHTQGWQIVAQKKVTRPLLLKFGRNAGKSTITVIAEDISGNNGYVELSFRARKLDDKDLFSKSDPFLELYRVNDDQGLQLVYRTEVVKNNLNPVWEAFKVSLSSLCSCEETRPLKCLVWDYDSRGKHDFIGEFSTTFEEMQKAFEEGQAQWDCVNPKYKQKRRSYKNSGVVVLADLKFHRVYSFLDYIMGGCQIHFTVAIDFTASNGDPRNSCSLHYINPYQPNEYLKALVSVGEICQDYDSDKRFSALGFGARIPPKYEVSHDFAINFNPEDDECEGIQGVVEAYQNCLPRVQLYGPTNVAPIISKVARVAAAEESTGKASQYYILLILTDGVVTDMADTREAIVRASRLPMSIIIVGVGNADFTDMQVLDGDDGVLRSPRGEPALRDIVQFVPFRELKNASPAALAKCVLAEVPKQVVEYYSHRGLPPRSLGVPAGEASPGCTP
UniProt Q8N684: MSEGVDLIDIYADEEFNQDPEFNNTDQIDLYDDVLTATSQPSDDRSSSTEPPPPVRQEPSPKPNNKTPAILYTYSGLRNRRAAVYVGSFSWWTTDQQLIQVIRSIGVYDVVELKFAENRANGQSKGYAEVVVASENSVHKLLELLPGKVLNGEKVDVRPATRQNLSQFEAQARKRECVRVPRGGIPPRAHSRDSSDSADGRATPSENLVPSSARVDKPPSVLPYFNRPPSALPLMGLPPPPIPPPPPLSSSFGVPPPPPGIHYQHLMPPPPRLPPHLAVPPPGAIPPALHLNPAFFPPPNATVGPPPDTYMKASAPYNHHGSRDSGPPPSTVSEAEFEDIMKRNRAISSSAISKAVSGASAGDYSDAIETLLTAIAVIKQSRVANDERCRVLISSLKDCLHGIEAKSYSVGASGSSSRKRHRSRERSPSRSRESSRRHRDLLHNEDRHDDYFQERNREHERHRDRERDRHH
UniProt Q5HYK3: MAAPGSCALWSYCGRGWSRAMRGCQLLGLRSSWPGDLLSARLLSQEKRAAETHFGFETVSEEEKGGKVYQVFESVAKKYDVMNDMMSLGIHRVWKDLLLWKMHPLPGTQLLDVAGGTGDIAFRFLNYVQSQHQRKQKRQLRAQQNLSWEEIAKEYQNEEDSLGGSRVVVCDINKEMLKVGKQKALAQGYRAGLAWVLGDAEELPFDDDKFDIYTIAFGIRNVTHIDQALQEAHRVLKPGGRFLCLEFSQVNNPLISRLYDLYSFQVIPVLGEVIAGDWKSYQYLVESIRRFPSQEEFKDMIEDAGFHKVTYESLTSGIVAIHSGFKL
UniProt Q13057: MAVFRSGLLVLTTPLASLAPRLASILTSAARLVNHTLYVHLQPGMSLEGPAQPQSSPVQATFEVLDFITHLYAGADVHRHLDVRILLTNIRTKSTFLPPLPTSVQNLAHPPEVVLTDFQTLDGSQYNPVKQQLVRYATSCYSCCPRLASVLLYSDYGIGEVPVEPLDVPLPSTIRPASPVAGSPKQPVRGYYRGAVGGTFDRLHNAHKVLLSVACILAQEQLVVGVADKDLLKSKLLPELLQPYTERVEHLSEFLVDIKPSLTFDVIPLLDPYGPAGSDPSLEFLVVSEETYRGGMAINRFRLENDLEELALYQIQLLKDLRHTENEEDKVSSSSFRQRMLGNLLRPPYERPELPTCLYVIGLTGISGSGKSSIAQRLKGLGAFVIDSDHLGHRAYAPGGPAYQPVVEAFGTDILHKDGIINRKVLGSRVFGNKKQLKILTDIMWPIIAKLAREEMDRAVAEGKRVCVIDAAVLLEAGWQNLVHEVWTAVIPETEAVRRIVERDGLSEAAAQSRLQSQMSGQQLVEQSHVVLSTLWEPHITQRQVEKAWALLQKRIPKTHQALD
UniProt P29373: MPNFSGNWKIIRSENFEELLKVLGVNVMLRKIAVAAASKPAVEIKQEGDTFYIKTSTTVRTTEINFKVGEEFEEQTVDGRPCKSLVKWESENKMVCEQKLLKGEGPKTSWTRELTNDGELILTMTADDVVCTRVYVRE
UniProt Q9P000, whole entry, looked up: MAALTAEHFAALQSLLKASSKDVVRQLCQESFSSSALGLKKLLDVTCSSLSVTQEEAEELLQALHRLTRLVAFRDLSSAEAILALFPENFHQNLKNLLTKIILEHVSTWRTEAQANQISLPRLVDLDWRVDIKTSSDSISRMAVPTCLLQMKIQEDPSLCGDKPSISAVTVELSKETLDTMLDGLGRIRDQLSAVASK
UniProt Q9NX08, whole entry, looked up: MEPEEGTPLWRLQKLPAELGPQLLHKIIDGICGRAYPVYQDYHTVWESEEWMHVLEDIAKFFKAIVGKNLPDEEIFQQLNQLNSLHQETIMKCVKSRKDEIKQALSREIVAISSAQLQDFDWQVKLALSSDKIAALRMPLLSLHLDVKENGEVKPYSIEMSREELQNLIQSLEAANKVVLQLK
UniProt Q7KZN9: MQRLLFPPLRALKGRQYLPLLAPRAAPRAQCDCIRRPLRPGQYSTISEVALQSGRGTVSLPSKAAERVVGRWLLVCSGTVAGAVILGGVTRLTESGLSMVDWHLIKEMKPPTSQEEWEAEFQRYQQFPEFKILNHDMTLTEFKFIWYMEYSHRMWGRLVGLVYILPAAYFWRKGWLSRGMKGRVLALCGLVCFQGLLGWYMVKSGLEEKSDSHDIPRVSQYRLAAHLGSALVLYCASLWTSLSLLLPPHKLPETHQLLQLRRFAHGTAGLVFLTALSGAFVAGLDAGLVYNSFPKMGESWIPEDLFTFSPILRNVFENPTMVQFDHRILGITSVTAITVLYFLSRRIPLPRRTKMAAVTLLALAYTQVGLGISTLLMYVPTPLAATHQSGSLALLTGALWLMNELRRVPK
UniProt P12074, whole entry, looked up: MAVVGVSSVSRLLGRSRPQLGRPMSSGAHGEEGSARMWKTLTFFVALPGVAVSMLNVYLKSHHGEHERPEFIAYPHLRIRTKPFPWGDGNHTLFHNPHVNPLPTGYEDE
UniProt Q9Y2B0: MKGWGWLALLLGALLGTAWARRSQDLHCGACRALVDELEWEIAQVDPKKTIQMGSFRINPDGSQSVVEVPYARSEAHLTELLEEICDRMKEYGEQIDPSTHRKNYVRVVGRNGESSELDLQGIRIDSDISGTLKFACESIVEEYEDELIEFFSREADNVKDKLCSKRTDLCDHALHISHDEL
UniProt Q92905, whole entry, looked up: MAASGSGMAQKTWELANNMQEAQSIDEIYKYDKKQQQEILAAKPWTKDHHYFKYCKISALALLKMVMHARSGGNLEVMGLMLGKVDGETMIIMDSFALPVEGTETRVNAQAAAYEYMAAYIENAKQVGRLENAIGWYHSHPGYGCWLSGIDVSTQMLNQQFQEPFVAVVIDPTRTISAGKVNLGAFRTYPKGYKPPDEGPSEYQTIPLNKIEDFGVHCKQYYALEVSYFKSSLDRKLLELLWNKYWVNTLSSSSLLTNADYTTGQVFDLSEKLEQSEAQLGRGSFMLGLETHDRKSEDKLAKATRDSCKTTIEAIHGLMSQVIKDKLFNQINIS
UniProt Q9H9Q2: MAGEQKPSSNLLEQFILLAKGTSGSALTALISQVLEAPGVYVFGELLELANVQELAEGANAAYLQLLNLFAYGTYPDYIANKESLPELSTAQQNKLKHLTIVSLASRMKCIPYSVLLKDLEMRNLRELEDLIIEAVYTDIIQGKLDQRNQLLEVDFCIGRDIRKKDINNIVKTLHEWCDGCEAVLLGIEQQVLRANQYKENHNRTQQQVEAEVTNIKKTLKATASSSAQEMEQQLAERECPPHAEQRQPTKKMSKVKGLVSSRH
UniProt Q9Y2R0: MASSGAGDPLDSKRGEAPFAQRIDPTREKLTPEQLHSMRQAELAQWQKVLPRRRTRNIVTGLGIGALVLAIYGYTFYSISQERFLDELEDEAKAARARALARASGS
UniProt Q9H3G5: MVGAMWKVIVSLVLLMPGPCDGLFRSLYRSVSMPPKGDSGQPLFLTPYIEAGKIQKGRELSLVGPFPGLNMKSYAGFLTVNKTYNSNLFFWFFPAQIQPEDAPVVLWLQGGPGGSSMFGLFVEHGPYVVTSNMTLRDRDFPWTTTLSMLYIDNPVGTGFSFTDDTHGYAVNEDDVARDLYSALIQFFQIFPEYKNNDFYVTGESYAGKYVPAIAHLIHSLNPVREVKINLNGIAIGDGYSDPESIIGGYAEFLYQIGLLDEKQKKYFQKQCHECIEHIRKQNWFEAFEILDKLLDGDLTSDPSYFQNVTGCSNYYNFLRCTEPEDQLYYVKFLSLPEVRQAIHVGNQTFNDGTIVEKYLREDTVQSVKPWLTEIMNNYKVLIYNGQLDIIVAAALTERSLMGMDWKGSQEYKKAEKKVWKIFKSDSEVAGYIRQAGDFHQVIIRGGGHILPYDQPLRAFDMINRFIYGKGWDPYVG
UniProt Q96F85: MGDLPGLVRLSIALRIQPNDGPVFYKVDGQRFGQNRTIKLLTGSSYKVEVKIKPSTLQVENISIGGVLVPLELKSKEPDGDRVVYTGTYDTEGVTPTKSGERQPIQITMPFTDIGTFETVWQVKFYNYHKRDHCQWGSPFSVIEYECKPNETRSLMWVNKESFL
UniProt P14854, whole entry, looked up: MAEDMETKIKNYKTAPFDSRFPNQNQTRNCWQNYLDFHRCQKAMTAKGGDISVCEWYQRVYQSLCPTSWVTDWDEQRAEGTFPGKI
UniProt Q8WTW3: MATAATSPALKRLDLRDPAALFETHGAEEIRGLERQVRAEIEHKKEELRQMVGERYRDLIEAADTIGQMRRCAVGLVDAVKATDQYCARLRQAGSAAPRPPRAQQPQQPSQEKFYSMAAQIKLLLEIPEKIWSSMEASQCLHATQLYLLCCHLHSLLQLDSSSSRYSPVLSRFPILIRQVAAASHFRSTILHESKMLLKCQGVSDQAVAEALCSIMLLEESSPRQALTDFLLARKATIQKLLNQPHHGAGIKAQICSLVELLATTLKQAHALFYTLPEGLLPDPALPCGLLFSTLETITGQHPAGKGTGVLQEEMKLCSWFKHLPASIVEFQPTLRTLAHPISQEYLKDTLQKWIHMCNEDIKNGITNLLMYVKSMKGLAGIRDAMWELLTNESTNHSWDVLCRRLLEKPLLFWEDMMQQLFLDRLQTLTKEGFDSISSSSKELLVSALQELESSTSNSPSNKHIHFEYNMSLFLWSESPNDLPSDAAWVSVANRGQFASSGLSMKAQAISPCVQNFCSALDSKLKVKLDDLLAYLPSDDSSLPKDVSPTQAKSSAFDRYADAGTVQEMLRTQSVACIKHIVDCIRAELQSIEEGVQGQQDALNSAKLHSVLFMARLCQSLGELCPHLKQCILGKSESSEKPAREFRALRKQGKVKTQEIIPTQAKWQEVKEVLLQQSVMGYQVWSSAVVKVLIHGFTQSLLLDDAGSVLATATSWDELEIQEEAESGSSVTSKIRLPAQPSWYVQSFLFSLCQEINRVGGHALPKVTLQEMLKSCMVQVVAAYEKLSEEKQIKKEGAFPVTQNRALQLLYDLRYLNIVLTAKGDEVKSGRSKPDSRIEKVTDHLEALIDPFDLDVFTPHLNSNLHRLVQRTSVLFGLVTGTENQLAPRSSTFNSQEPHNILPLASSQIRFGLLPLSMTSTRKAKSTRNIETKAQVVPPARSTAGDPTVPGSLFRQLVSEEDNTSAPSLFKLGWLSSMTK

The list shows a part of the results.

Assay in all cases: log2 fold change, soluble protein after heating vs DMSO (PISA); higher = thermal stabilisation; K562 lysate, 10 uM; active = over 0.2 and 3.5 SD of the protein, either way, in both replicates (recomputed)
Compound in test [1]: NCC(=O)Nc1ccc(-n2nc(C(F)(F)F)cc2-c2ccc3c(ccc4ccccc43)c2)cc1
The gist of the method:
(§1)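 Following dounce homogenisation of K562 pellets in PBS pH 7.4 with 1 mM MgCl2, crude extract at 1 mg/mL protein was incubated for 30 min with 10 μM compound. Aliquots were then heated for 3 min over 48°C-58°C and pooled, NP-40 was added to 0.5% at 4°C, and soluble protein was recovered as the supernatant at 21,000xg for 90 min. Channel-sum-equalised TMTpro 16plex LC-MS/MS quantified this protein. Each value, from duplicates, is a log-two fold change in thermal stability relative to solvent controls.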

Compound in a further test: O=C(CCCCCCC(=O)Nc1ccccc1)NO [vorinostat]
The gist of the method: as §1

Compound in a further test: O=C(O)c1ccc2c(c1)nc(Nc1cccc(Cl)c1)c1ccncc12 [silmitasertib]
In a few lines: as §1

Compound in test [2]: O=C1NC(=O)C(c2cnc3ccccn23)=C1c1cn2c3c(cc(F)cc13)CN(C(=O)N1CCCCC1)CC2
In a few lines:
as §1

Compound in another test: c1cn2cc(-c3ccc4cn[nH]c4c3)nc(Nc3ccc(N4CCOCC4)cc3)c2n1 [entospletinib]
The gist of the method: as §1

Turning to CORO7 (UniProt P57737), the log2 fold change in test [1] was inactive: -0.053; in the test with vorinostat, inactive: -0.019; with silmitasertib, inactive: -0.017; in test [2], inactive: 0.019; with entospletinib it was inactive: -0.045.
On to CPNE7 (UniProt Q9UBL6), for which the log2 fold change is inactive: 0.086 in test [1]; inactive: -0.147 with vorinostat; inactive: 0.038 with silmitasertib; inactive: 0.046 in test [2]; inactive: 0.061 with entospletinib.
Take COPS4 (UniProt Q9BT78): the log2 fold change in test [1] is inactive: -0.036; with vorinostat it was inactive: 0.072; with silmitasertib, inactive: 0.012; in test [2], inactive: 0.005; with entospletinib it was inactive: 0.006.
Consider CPSF7 isoform 3 (UniProt Q8N684), for which the log2 fold change was inactive: 0.006 in test [1]; inactive: -0.001 with vorinostat; inactive: -0.01 in the test with silmitasertib; inactive: -0.04 in test [2]; inactive: 0.015 with entospletinib.
With COG2 (UniProt Q14746), the log2 fold change was inactive: -0.031 in test [1]; active: -0.315 with vorinostat; inactive: 0.055 in the test with silmitasertib; inactive: 0.061 in test [2]; inactive: 0.058 in the test with entospletinib.
With COQ5 (UniProt Q5HYK3), the log2 fold change in test [1] is inactive: -0.005; with vorinostat it was inactive: -0.05; with silmitasertib, inactive: 0.02; in test [2], inactive: -0.023; with entospletinib it was inactive: 0.
In the case of CPNE3 (UniProt O75131), the log2 fold change was inactive: -0.004 in test [1]; inactive: -0.151 in the test with vorinostat; inactive: 0.011 in the test with silmitasertib; inactive: 0.002 in test [2]; inactive: 0 with entospletinib.
COASY isoform 2 (UniProt Q13057): the log2 fold change in test [1] is inactive: 0.018; with vorinostat, active: -0.214; with silmitasertib it was inactive: 0.075; in test [2], inactive: 0.006; in the test with entospletinib it was inactive: 0.019.
As to CRABP2 (UniProt P29373), the log2 fold change in test [1] was inactive: 0.169; in the test with vorinostat, inactive: 0.18; with silmitasertib, inactive: -0.05; in test [2], inactive: 0.007; in the test with entospletinib it was inactive: -0.209.
For the target COMMD9 (UniProt Q9P000), the log2 fold change in test [1] is inactive: -0.056; with vorinostat, inactive: 0.025; in the test with silmitasertib it was inactive: -0.021; in test [2], inactive: 0.02; in the test with entospletinib, inactive: -0.035.
In the same order, the values of COMMD8 (UniProt Q9NX08) are inactive: -0.048, inactive: -0.049, inactive: 0.017, inactive: 0.054 and inactive: -0.26.
For the target COX15 (UniProt Q7KZN9), the log2 fold change was inactive: -0.035 in test [1]; inactive: 0.118 with vorinostat; inactive: 0.016 with silmitasertib; inactive: -0.007 in test [2]; inactive: 0.003 in the test with entospletinib.
Take COX6A1 (UniProt P12074): the log2 fold change in test [1] is inactive: -0.03; in the test with vorinostat, inactive: 0.048; with silmitasertib, inactive: -0.021; in test [2] it was inactive: 0.156; with entospletinib, inactive: -0.013.
Take CNPY2 (UniProt Q9Y2B0): the log2 fold change was inactive: -0.02 in test [1]; inactive: 0.018 in the test with vorinostat; inactive: -0.026 with silmitasertib; inactive: -0.059 in test [2]; inactive: -0.009 in the test with entospletinib.
Consider CNNM2 (UniProt Q9H8M5), for which the log2 fold change is inactive: 0.001 in test [1]; inactive: 0.068 with vorinostat; inactive: 0.065 in the test with silmitasertib; inactive: 0.051 in test [2]; inactive: -0.073 with entospletinib.
In the same order, the values of COMMD5 (UniProt Q9GZQ3) are inactive: 0.012, inactive: 0.016, inactive: -0.034, inactive: -0.023 and inactive: -0.092.
As for COPS5 (UniProt Q92905), the log2 fold change in test [1] is inactive: -0.017; with vorinostat, inactive: 0.081; with silmitasertib, inactive: 0.015; in test [2] it was inactive: 0.004; in the test with entospletinib, inactive: 0.023.
COLGALT1 (UniProt Q8NBJ5): the log2 fold change in test [1] is inactive: -0.007; with vorinostat, inactive: 0.069; with silmitasertib, inactive: -0.006; in test [2], inactive: -0.017; with entospletinib, inactive: -0.014.
In the same order, the values of COPS7B (UniProt Q9H9Q2) are inactive: -0.023, inactive: 0.105, inactive: -0.056, inactive: -0.007 and inactive: -0.042.
The corresponding values for COLGALT2 (UniProt Q8IYK4) are inactive: -0.012, inactive: 0.015, inactive: 0.01, inactive: -0.06 and inactive: -0.006.
The corresponding values for COA3 (UniProt Q9Y2R0) are inactive: -0.018, inactive: 0.094, inactive: -0.02, inactive: -0.007 and inactive: -0.104.
Regarding CNOT2 (UniProt Q9NZN8), the log2 fold change is inactive: 0.044 in test [1]; active: -0.207 with vorinostat; inactive: 0.015 with silmitasertib; inactive: -0.009 in test [2]; inactive: -0.015 with entospletinib.
Turning to CPVL (UniProt Q9H3G5), the log2 fold change in test [1] is inactive: 0.096; with vorinostat, inactive: 0.079; with silmitasertib, inactive: -0.056; in test [2], inactive: -0.048.
In the case of COG3 (UniProt Q96JB2), the log2 fold change in test [1] was inactive: 0.011; in the test with vorinostat, active: -0.314; with silmitasertib, inactive: 0.123; in test [2] it was inactive: 0.06; in the test with entospletinib, inactive: -0.017.
For CNRIP1 (UniProt Q96F85), the log2 fold change was inactive: 0.166 in test [1], inactive: -0.042 with vorinostat, inactive: -0.002 in the test with silmitasertib and inactive: 0.063 in test [2].
For the target COX6B1 (UniProt P14854), the log2 fold change in test [1] was inactive: -0.156; in the test with vorinostat it was inactive: -0.19; with silmitasertib, inactive: -0.004; in test [2] it was inactive: -0.008; in the test with entospletinib, inactive: -0.026.
With COG1 (UniProt Q8WTW3), the log2 fold change was inactive: 0 in test [1]; inactive: -0.213 with vorinostat; inactive: 0.008 with silmitasertib; inactive: 0.042 in test [2]; inactive: 0.053 with entospletinib.
